Results as given in PubChem BioAssay AID1508600 (Functional Genomics Laboratory (NCATS/FGL), 2020).
Screen size: about 53,000 sequences; about 3,700 (7%) were called active.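 Rule for the calls: active = gene knockdowns whose robust z-score for IL-1 alpha signal is at least 2 or at most -2, so actives lie on both sides; inactive = the rest.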 This is one part of the list.

Experiment: Components of the Cytosolic LPS Sensing Pathway: Gene Identification via Genome-wide siRNA Screen;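 note: robust z of the log signal after scaling to non-targeting control siRNA wells of the plate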
Settings: RAW264.7 macrophages, IL-1a HTRF, actives lie on both sides, screened at 100 nM (by protocol), cells primed 5 h with Pam3CSK4 first
Outline: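 IL-1a HTRF of supernatants after 24 hour LipidA transfection of Pam3CSK4-primed (5 hours) RAW264.7 cells, 48h post-siRNA transfection (100 nM). Scores: percent of plate negative-control median, then log-based robust z-score.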

Sequence | z-score
GGAUUCAGGGAACAGCAAUTT against Ntrk3 | active: -3.08
GGUUAUUGAAGAUGAUAGATT against Sec24c | inactive: -1.16
GGUCAAGAUCCGAAGCUACTT against Cntn2 | inactive: -0.749
GGUCUCAAGUUGAAAGAAATT against Cemip | inactive: -0.892
GGUGUUUCUGUUCUGAUUCTT against Olfr703 | inactive: 0.0332
GCUCAAAACAAUCCACGCCTT against 1700006J14Rik | inactive: -0.47
CCAAACACUAUGGCCUGAUTT against Dagla | inactive: 0.548
CGUGGAGAUCAUCCACUCATT against Inf2 | active: -2.44
GGGCACAAGAUCUCAAUUUTT against B4galt7 | inactive: -0.32
GCCAUUCUCACUCCUAGUUTT against Foxj2 | inactive: -1.2
GGCCAUCGAAAAGAAUGUGTT against Prkar1a | inactive: -0.5
GACCUUCCAGGUCAAGUUGTT against Plcg1 | active: 2.56
UUUAGCUUUCUUCUGGCUCTT against Olfr237 | inactive: 0.035
GCUAGCAUAGUCAAAAACUTT against Ptges | inactive: -0.45
GCCUGAGGAUCUAUAGAUATT against Prss29 | inactive: -1.36
GGAAGAAAUUCAAAAACUGTT against Golga5 | inactive: -0.653
GGAAGAACAGACUUGCCUGTT against Sh3bp1 | inactive: -0.665
GGACCAUAAUGGCAAUAAATT against ccdc198 | inactive: 1.08
GGGCUUGAUUGAAUCGGCUTT against Rufy3 | inactive: 0.163
GAUUCAACCUGUCCAAGCUTT against Naa80 | inactive: -0.726
CGAGGCUAACAAACUCAUATT against Guca2a | inactive: 0.883
GGUGAUUGUGCACCUGUUGTT against Tex14 | inactive: 0.622

Sequence | z-score
GGUGGAAGAACUCUGUCAGTT against Rnf40 | inactive: 0.838
GCCCAAUAGAAGCUGGAUGTT against Tex29 | inactive: -1.99
CGGAGUAUUUCUAUCCACGTT against Gas6 | inactive: -1.62
GGAUGGAGAUGAAAUUAUCTT against Atp8a2 | inactive: -0.375
GGAAUCCUUUGGUUAUUCATT against Hs6st1 | inactive: 0.876
GCACUGUUUGUGCAAACAATT against C130071C03Rik | active: -2.22
GCCAAGUUAGAAGUUAGAATT against Mrpl42 | inactive: -0.925
CGAAAACGAGAUCACCAAATT against E2f7 | inactive: -0.347
GGAUGAGUGCUCCAAGAUCTT against Alkbh5 | inactive: -0.4
GCCUCAGCAAGUGUUAGAUTT against Map4 | inactive: 0.291
GGAUGAUGUGACAGAGACCTT against Trpv3 | inactive: -0.0206
CCGAUUUGAAAAGCUAAUGTT against Fmnl1 | inactive: 1.21
CGUUGAUUUCCAAAGCUGUTT against Kcnc2 | inactive: 0.897
CCAUCCUAGCUGUGGUAAGTT against Olfr554 | inactive: 1.32
CCAAUAUCACAUUUGCUUUTT against Crb1 | inactive: -0.568
GCCACCUUUAAAGAACCUUTT against Zeb1 | inactive: -0.863
CGUGGAGGUAUGCACACGUTT against Ndrg1 | inactive: -1.96
CGGCAUGAGCAGUUUAUAUTT against Col19a1 | inactive: -1.04
GCCAUGAUACCUUGUUAUUTT against Plppr5 | inactive: 1.08
GCUAUUAAGUUUACCCUAGTT against A730089K16Rik | inactive: -1.31
CCGUCUUAAUUCUCACCUUTT against Fastkd5 | inactive: 0.573
GGUCCGGUCUCAGACUUCATT against Ift27 | inactive: 1.16

Sequence | z-score
GGUGUAGUAAUAGGAUUUUTT against Ak3 | inactive: 0.227
GGCCAUGGUACACAAUGGUTT against Obp2a | inactive: -0.416
GCAACCAUUCAAACAUUUGTT against Sun3 | inactive: 1.87
GGAUUUAAGUCAAAUCUCUTT against Rxfp3 | inactive: 0.439
GCAAGAUUUAUCUUGUACCTT against Tex2 | inactive: -0.576
GGCUCAUUUCCUUAUAUGATT against Nepro | inactive: -0.259
CGAGUCAAAAUCGAAUGAUTT against Mios | inactive: -0.168
GGUGAUAACUCCCUAGUAGTT against Elp5 | inactive: -0.934
GGUUUUCUUCAACAUCCUGTT against Bcs1l | inactive: 0.0241
CCUUGUGCCGAGAUUUUCCTT against Tceal5 | inactive: 0.49
GGAAGAGAUCGAUGAGACUTT against Cyp3a41a | inactive: 0.91
GGCUUCUACACAUGGGAUGTT against Rnaset2b | inactive: -0.394
CGUGCUAAAUGCUUGUGUGTT against Ramac | inactive: 0.138
GGAUUUGGCUAUAUCAACATT against Rfc2 | inactive: -1.56
GGAGGAGACUAAAGAAAAUTT against Myf6 | inactive: -1.53
GGUCACUCGGUUCACAAAATT against Bid | inactive: -0.731
GGAAUGAAGACAAUUGUACTT against Trim69 | inactive: -0.147
GGUCAUCACCUAUGCAGGGTT against Olfr1353 | inactive: 0.707
GGAAGAUCCAUUAUUUACUTT against Fam160b1 | inactive: 0.349
GGAUGACAAGAAUACAAUGTT against Myo5a | inactive: 0.171
GGUGGCUCUGAAGAAAGUGTT against Cdk9 | inactive: -1.02
GGUCAUCUGCUAAUAGAAUTT against Bcap29 | inactive: 1.86

Sequence | z-score
GGAUGCUCAUGGACCUUUGTT against Olfr1122 | inactive: 0.931
GCAAGCAACCCAUAGUCUATT against Hoxc4 | inactive: -0.39
GGAAAGAAAGACAAAGAAGTT against Cst6 | inactive: 0.0489
UGGCGUGUCUCCUAUCCAUTT against Abl2 | inactive: -1.53
GCUUUUAGGUGUGCUGUCCTT against Psg28 | inactive: -0.949
CCUUGUUGUGACAAGCUUUTT against Rchy1 | inactive: -0.362
CGUGAGACCCUCAAGCUUGTT against Fam110b | inactive: -0.777
GCUCUAUGGGAGAUUUGGATT against Itga2b | inactive: -0.399
GCAGAGGAGUUUUCAAUUUTT against Il17rb | inactive: 0.997
GGGUGGAAGCUUUGAGAGATT against Bag2 | inactive: 0.376
GCCUGCGUCUUGUUCUGAGTT against Agtr1a | inactive: -0.232
GGACUUUGUACGUUUCCUUTT against H1f0 | inactive: -1.59
GGACAAGAAAUACACCAUGTT against Gstm2 | inactive: -1.8
GGCCUUUGUAUUUCCCAAGTT against Crp | inactive: 0.244
GCCUAUGAAGGAACCACAUTT against Cdh2 | inactive: 1.39
GGCUCAUUUGCUGAGUGUGTT against Fscn2 | inactive: 1.68
GGAUCCUUCUCUGUAAUAUTT against Ubxn2b | inactive: -1.34
CCUGUUUUUGCUACAUAGATT against Hhat | inactive: 0.905
CGGUUACUUGUAACAUUCCTT against Stoml3 | inactive: 1.04
GGUUUUUGUUAAGGUCAAUTT against Abca16 | inactive: 0.209
GGCUUUCCGUAUAACCUACTT against 1700018F24Rik | inactive: 0.0527
GGAGUUUCUAUUCAACAUGTT against Hoxa10 | inactive: 0.544

Sequence | z-score
GGGUUUAUUAGAUUUGUCUTT against Ammecr1 | inactive: -0.494
GGACACUCAAUGAAAUCUATT against Foxp3 | inactive: 1.21
GGUUUACAAAGGCACACCCTT against Prim2 | inactive: 1.08
GGUGGUUGAAAUAUGAUGATT against Klhl7 | inactive: -0.306
CGUAUUCUGGUAGUGAAGGTT against Olfr1384 | active: -2.3
CCUUUUUGCUGAAUGUGGATT against Aard | inactive: 0.798
GCAACCUGUUAACAGAAGUTT against Tmco6 | inactive: 0.324
GGAAGAGGAGGAAAAGUCUTT against Armcx1 | inactive: -1.24
GGGUGACAGACAAUGGUCUTT against Hk2 | inactive: 0.528
GCCCAAGCAGUUCAUUCAUTT against Epc2 | inactive: 0.665
GUCCUGGAAGAAAUGAGAATT against Ifna4 | inactive: 0.781
GGAGAAGACUUGUAACAAATT against Hacd4 | active: 5.28
GGGUGUAGACAGUUCUUUGTT against Adam30 | inactive: 0.78
GCACUGAAACUCCAUCCUATT against Rag1 | inactive: 0.85
GGCCCAUUACUUGUUGACUTT against Fanci | inactive: 0.378
GGCCUUUGUGCGCACUUAUTT against Armc5 | inactive: -0.616
GGAGAGAAGAUCAUUUCAATT against Ncam2 | active: 2.38
GGACCUAUUGAAGGCAAAATT against Nfkb1 | inactive: 1.6
GGAGCAAAAACCUCUAAAUTT against Itgb1bp2 | inactive: 0.51

4 records drawn at random from those above:
Sequence | z-score
GGAGAAGACUUGUAACAAATT against Hacd4 | active: 5.28
GCAACCUGUUAACAGAAGUTT against Tmco6 | inactive: 0.324
GGAAGAGGAGGAAAAGUCUTT against Armcx1 | inactive: -1.24
GGUUUACAAAGGCACACCCTT against Prim2 | inactive: 1.08
